Results as given in doi:10.1101/2020.05.12.090472.
No constants are given. Whether binding was seen depends on the method and setting. Binding seen in cells or lysates may run through a third protein. Some entries that bind do so weakly or less than the wild type.

Amino acid sequences for entries named in this document (tags omitted).
UniProt P61809: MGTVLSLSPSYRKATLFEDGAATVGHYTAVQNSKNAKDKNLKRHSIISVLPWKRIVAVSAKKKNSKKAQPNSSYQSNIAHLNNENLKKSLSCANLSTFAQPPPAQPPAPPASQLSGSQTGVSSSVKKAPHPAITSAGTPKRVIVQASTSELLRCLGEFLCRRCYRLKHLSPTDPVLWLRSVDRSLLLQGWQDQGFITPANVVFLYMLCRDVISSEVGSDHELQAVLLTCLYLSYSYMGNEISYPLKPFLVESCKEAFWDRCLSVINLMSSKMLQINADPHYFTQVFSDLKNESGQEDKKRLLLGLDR

Tests used:
[1] = target: T1, biotin-conjugated Cdk5i peptide; test: pull-down
T1 sequence (peptide, biotin at the N-terminus): ARAFGIPVRCYS

[2] = target: T2, biotin-conjugated scrambled peptide; test: pull-down
T2 sequence (peptide, biotin at the N-terminus): AFRSPCARIGYV

Substance | binding [1] | binding [2]
Cdk2 of wild-type mouse brain lysate (from UniProt P97377 1-346) (enzyme) | no binding | no binding
Cdk5 of wild-type mouse brain lysate (from UniProt P49615 1-292) (enzyme) | binds | no binding
Recombinant Cdk5/p25 complex (human Cdk5 and p25 with N-terminal GST-tags) (from UniProt Q00535 1-292; Q15078 99-307) |  | binds weakly
p35 of wild-type mouse brain lysate (from UniProt P61809 1-307) | binds | no binding
